Source: patent publication EP4803542A2 (Sanofi Biotechnology, dated 2026)
These are yes or no findings as the source states them, for the method shown. Some results given as binding are weak or reduced against the parent protein; the word gives no strength. Where a sequence is shown, tags or fusion partners need not be part of it.

Protein sequences, listed by entry. Tags and fused reporters are not part of them. Residues count along the entry.
UniProt Q9NPH3, residues 21-570: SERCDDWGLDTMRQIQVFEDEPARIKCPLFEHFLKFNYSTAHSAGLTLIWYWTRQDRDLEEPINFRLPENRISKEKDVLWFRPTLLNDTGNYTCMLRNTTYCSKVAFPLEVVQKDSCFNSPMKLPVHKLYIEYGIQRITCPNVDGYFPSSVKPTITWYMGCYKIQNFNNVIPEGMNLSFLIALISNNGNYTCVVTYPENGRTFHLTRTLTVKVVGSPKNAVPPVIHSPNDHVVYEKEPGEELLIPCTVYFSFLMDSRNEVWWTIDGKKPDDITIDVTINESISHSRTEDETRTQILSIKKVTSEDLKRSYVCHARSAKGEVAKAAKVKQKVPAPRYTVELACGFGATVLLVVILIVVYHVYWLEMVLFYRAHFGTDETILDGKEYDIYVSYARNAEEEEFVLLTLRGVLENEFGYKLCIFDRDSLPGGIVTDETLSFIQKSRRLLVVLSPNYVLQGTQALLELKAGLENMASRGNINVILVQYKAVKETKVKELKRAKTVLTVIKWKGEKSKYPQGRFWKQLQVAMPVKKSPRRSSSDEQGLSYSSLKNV

Target: human IL-1R3 expressed on cells (SK-MEL-30 and other human cell lines) (human) (UniProt Q9NPH3)
Experiment: effector cell reporter assay with SK-MEL-30 target cells (Example 21)

B1: MAB-16-0030 produced as an IgG1 antibody (IgG1 Fc-part without LALA) (antibody, V domains shown)
VH: EVQLEESGGRLVQPGTSLRLSCAVSGFSLSSYDMSWVRQAPGKGLEWVSTIYIGGTTAYASWPKGRFTISKTNSKNTLYLQMNSLRAEDTAVYFCARLQGANYYNSLALWGQGTLVTVSS
VL: DVQMTQSPSSLSASVGDRVTITCQASQSIYSFLSWYQQKPGQAPKLLIYAASDLESGVPSRFSGSGSGTDFTLTISSLQPEDFATYYCQCNYIIDYGAFGQGTKVVIK
With B1 the binding was “binds”.
